Reference: PubChem BioAssay AID2551 (National Center for Advancing Translational Sciences (NCATS), 2010)
Hit rate of the full screen: of about 310,000 compounds, about 17,000 (5.5%) were called active. Inconclusive means that the source gave no clear call. Such entries were picked first, then a sample of the others. The call rests on the fitted dose curve; in most records, active means well fitted inhibition curve with a large enough effect; inconclusive means small, poorly fitted or top-dose-only effect, or effect the other way; inactive means no such curve, though single readings can be large or run the other way. Potencies of inconclusive entries are doubtful fits and often do not repeat.

The chains behind the UniProt entries cited, without tags or fusion partners. Where a name states a change or a piece, a line headed by the entry shows the natural chain unless it says otherwise.
UniProt P51450: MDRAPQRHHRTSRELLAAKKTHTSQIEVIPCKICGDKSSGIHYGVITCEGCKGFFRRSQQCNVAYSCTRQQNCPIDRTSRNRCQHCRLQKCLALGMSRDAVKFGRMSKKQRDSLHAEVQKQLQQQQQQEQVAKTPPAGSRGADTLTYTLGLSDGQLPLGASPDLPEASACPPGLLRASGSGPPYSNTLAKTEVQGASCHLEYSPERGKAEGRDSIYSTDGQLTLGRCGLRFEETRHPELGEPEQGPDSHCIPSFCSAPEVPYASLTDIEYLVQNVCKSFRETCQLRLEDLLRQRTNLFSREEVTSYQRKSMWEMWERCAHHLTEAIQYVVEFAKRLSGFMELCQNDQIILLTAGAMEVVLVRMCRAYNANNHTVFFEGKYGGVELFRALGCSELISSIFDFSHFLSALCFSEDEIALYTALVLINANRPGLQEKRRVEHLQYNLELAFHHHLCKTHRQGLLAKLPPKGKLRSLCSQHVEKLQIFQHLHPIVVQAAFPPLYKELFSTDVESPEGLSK

target: Nuclear receptor ROR-gamma (Mus musculus) (UniProt P51450); assay: qHTS for inhibitors of ROR gamma transcriptional activity; conditions: Drosophila S2 Gal4-RORgamma UAS-luciferase reporter, 20 h; activity change, negative = inhibition: at 53.6 µM (top of the series); further: nearly all actives have a fitted effect of over 60% in size
Method in brief: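 Compounds are pin-transferred onto Drosophila Schneider cells expressing a copper-inducible Gal4–ROR gamma transactivation domain fusion. After 1 hr, copper sulfate is added to 700 uM final; luciferase is read 20 hr later.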
On the % scale 0 is the no-effect control and ±100 the full control effect; potency means the concentration at half of the fitted maximal effect.

Potency, inconclusive:
COCCn1c(=S)[nH]c2cc(C(=O)N3CCc4ccccc4C3)ccc2c1=O 14.1 µM [inhibitor, single point]
O=C(NNC(=O)c1cc(Br)ccc1Cl)c1csc(N2CCOCC2)n1 35.5 µM [inhibitor, single point]
NC(=O)[C@H]1CC2(CC(c3cccc(NC(=O)COc4ccc(Cl)cc4)c3)=NO2)CN1C(=O)c1ccc(Cl)cc1 (stereo not given in full) 5.62 µM [activator, single point]
CCOC(=O)c1[nH]nc(C(=O)c2ccc(Br)cc2)c1O 20 µM [activator, single point]
COc1cc(/C=N/OCC(=O)NC2CCCCC2C)ccc1OCc1ccc(Cl)cc1 (stereo not given) 20 µM [activator, single point]
Cc1cccc(C(=O)c2cnc3ccccc3c2-c2ccccc2)c1 22.4 µM [inhibitor, single point]
COc1ccccc1C(=O)N1CCCC(c2nc(-c3cc(OC)c(OC)c(OC)c3)no2)C1 (stereo not given) 3.98 µM [inhibitor, single point]
CCOc1ccccc1N1CN(CC)CNC1=S 12.6 µM [inhibitor, partial curve, poor fit]
CCC(C)N(C(=O)C(F)(F)F)C(C(=O)NC1CCCCC1)c1ccncc1 (stereo not given) 31.6 µM [activator, single point]
CCOC(=O)C1CCN(C(c2cc3ccc(C)c(C)c3[nH]c2=O)c2nnnn2C2CCCCC2)CC1 (stereo not given) 35.5 µM [inhibitor, single point]
COc1ccc(N(C)S(=O)(=O)c2cccc(C(=O)Nc3ccc(OC)nc3)c2)cc1 22.4 µM [activator, single point]
CC(C)(CC(=O)O)Cc1nc(-c2ccc(Cl)cc2)no1 5.01 µM [activator, partial curve]
Cc1ccc(N2C(=O)CC(NCc3ccc4c(c3)OCO4)C2=O)cc1Cl (stereo not given) 14.1 µM [activator, single point]
Cc1ccccc1OCC(=O)N/N=C/c1cn(C)c2ccccc12 3.55 µM [inhibitor, partial curve, poor fit]
COCCN(C(=S)Nc1ccccc1C)C(C)c1cccs1 (stereo not given) 20 µM [inhibitor, single point]
Cc1oc2cc(O)ccc2c(=O)c1Oc1ccc2ccccc2c1 1.58 µM [inhibitor, full curve]
O=C(NCc1ccccc1Cl)c1ccccc1Oc1ccccc1 7.94 µM [activator, partial curve]
COc1cc(/C=N/Nc2ccc(Cl)c(C(=O)O)c2)ccc1OC(=O)c1cccs1 12.6 µM [activator, single point]
Cc1ccc(SCCC(=O)Nc2cccc(N(C)S(C)(=O)=O)c2)cc1 5.62 µM [activator, single point]
O=C(Cc1ccc([N+](=O)[O-])cc1)c1c(O)cc(O)cc1O 7.94 µM [activator, partial curve]
COc1cc(CN2CCC(Cc3ccccc3)CC2)cc([N+](=O)[O-])c1O 0.0355 µM [inhibitor, full curve, poor fit]
O=C1CCC(=O)N1c1ccc(CSc2nc3ccccc3[nH]2)cc1 17.8 µM [activator, single point]

Potency, active:
CCCCC(=O)NC(=S)NNC(=O)CCc1ccccc1 11.2 µM
Cc1ccc(-c2csc(N3CCN(c4cc5c(cc4Cl)nc(-c4ccncc4)n5CCN4CCCCC4)CC3)n2)cc1 8.91 µM
FC(F)(F)Oc1ccc(NC(=S)NCc2ccccc2)cc1 7.08 µM
CCCCNC(=S)N1CCN(C(c2ccccc2)c2ccccc2)CC1 3.16 µM
Cc1nc([N+](=O)[O-])c(Sc2nc3ccc([N+](=O)[O-])cc3[nH]2)n1Cc1ccccc1 15.8 µM
CCc1ccccc1NC(=O)C/C(C)=N/NC(=O)COc1ccccc1C 11.2 µM
COc1cc(C(=O)NC(=S)Nc2ccccc2N2CCCC2)cc(OC)c1OC 4.47 µM
Cn1nnnc1SCC(=O)Nc1nc(-c2ccccc2)c(-c2ccccc2)o1 10 µM
O=C(Nc1nnc(-c2ccccn2)o1)c1cccc(Br)c1 0.501 µM
Cc1cc(N/N=C/c2ccc([N+](=O)[O-])o2)nc2ccccc12 11.2 µM
COc1cccc(C(=O)Nc2nc(-c3ccccc3)c(-c3ccccc3)o2)c1 2.51 µM

3 compounds from above, arranged by length of the SMILES, ascending:
Potency, active:
CCc1ccccc1NC(=O)C/C(C)=N/NC(=O)COc1ccccc1C 11.2 µM
Cc1cc(N/N=C/c2ccc([N+](=O)[O-])o2)nc2ccccc12 11.2 µM
Cc1nc([N+](=O)[O-])c(Sc2nc3ccc([N+](=O)[O-])cc3[nH]2)n1Cc1ccccc1 15.8 µM

Following part:

Activity change, negative = inhibition, inactive:
Cc1ccc(C)c(N2CCN(C(=O)Cc3cn(C)c4ccccc34)CC2)c1 20.6%
CCOC(=O)CSc1nc(N)c(C#N)c(-c2ccc(OC)cc2)c1C#N 5.23%
Cc1noc(NS(=O)(=O)c2ccc(NC(=O)CSc3nc4c(cc3C#N)CCC4)cc2)c1C -32%
COc1ccc(-c2cc(C(=O)Nc3ccc(S(=O)(=O)Nc4ncccn4)cc3)c3ccccc3n2)cc1 37.9%
Cc1ccc2c(CN3CCN(Cc4ccc5c(c4)OCO5)CC3)cc(=O)oc2c1C -14.9%
CCOc1ccc2[nH]c(C(=O)N/N=C/c3ccc(OC)cc3)cc2c1 -17.4%
Cc1cccc(C(=O)Nc2ccc(C)c(OC(=O)c3cccc(C)c3)c2)c1 15.9%
NC(=O)CSc1nc2ccccc2c(=O)n1Cc1ccco1 5.4%
COC(=O)c1cc(OC)c(OC)cc1NC(=O)CN1CCCCC1 5.39%
O=C(O)c1ccc[nH]c1=S -7.29%
O=C(Cc1c[nH]c2ccccc12)NCc1ccccc1F 9.81%
CC(=O)Nc1scc(-c2ccccc2)[n+]1-c1ccc(C)cc1 -18.5%
Cc1cc(C)nc(/N=C(\N)Nc2ccc(OCc3ccccc3)cc2)n1 21.2%
O=C(c1cnccn1)N1CCC2(CCN(Cc3nccs3)CC2)CC1 -11.7%
CCN(/C=N/c1sc2c(c1C#N)CCCCC2)CC -23.1%
FC(F)(F)c1ccccc1-c1cncnc1NCc1cccnc1 0.954%
Oc1ccccc1/C=N/Nc1ncc(Br)cn1 -32.5% [at 10 µM]
